# Assay results as given in publication PMC10394004.
# The chains behind the UniProt entries cited, without tags or fusion partners. Where a name states a change or a piece, a line headed by the entry shows the natural chain unless it says otherwise.
# UniProt Q7JRM2: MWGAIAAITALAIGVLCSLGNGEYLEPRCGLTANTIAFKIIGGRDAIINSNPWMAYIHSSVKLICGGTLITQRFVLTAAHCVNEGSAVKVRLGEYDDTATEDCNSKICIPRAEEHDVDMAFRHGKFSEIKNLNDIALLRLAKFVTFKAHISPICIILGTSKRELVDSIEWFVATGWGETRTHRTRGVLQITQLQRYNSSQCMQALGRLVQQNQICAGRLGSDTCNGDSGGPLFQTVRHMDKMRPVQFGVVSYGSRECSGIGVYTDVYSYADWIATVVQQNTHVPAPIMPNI
# Assays:
# [1] = target: T1, DIAP1-EGFP (Drosophila inhibitor of apoptosis protein 1 fused with EGFP) (Drosophila) (UniProt Q24306); assay: co-IP; Drosophila S2 cells co-expressing the EGFP bait and HA-tagged Erasp; lysis in 50 mM Tris-HCl pH 8.0, 150 mM NaCl, 1% NP40, 1 mM DTT; precipitation with anti-EGFP antibody and protein A agarose; Erasp detected by its HA epitope
# T1 sequence: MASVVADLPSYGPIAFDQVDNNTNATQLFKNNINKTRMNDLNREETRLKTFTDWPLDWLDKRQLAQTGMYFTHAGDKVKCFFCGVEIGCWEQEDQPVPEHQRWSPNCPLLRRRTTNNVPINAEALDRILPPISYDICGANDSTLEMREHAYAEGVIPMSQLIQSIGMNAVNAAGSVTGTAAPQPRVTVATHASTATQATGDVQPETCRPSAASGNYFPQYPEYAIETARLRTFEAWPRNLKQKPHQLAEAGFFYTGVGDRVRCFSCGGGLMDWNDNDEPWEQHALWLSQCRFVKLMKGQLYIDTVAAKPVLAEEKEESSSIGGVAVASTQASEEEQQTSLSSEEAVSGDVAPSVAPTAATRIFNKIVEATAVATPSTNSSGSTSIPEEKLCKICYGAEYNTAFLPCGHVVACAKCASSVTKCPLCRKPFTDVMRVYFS
# GST-DIAP1 (Drosophila) = target: T2, GST-DIAP1 (Drosophila) (UniProt Q24306); assay: pull-down; GST fusion proteins on GSH-Sepharose beads incubated with lysate of cells expressing HA-tagged Erasp (50 mM Tris-HCl pH 8.0, 150 mM NaCl, 1% Triton X-100, 0.1% SDS, 0.5% sodium deoxycholate) for 4 h at 4 °C; anti-HA immunoblot; only the target purified
# T2 sequence: T1 sequence
substance,measurement,setting,value
"HA-tagged Erasp (ER stress-associated serine protease, CG30090) (from UniProt Q7JRM2) (enzyme)",binding,[1],binds
same,binding,GST-DIAP1 (Drosophila),binds

# Results are given in words; binding and its absence hold for the method and conditions named. Binding seen in cells or lysates may run through a third protein. A result given as binding can be weak or reduced; the word gives no strength. Tags and fused reporters may be left off the sequences shown.
